Reference: US20200157236A1
Numbering of substitutions follows the chain as printed. No constants are given. Whether binding was seen depends on the method and setting. Some entries that bind do so weakly or less than the wild type.

Protein sequences, listed by entry. Tags and fused reporters are not part of them. Lines headed by an entry give the natural chain unless they say otherwise; changes in a name come on top.
UniProt P97793: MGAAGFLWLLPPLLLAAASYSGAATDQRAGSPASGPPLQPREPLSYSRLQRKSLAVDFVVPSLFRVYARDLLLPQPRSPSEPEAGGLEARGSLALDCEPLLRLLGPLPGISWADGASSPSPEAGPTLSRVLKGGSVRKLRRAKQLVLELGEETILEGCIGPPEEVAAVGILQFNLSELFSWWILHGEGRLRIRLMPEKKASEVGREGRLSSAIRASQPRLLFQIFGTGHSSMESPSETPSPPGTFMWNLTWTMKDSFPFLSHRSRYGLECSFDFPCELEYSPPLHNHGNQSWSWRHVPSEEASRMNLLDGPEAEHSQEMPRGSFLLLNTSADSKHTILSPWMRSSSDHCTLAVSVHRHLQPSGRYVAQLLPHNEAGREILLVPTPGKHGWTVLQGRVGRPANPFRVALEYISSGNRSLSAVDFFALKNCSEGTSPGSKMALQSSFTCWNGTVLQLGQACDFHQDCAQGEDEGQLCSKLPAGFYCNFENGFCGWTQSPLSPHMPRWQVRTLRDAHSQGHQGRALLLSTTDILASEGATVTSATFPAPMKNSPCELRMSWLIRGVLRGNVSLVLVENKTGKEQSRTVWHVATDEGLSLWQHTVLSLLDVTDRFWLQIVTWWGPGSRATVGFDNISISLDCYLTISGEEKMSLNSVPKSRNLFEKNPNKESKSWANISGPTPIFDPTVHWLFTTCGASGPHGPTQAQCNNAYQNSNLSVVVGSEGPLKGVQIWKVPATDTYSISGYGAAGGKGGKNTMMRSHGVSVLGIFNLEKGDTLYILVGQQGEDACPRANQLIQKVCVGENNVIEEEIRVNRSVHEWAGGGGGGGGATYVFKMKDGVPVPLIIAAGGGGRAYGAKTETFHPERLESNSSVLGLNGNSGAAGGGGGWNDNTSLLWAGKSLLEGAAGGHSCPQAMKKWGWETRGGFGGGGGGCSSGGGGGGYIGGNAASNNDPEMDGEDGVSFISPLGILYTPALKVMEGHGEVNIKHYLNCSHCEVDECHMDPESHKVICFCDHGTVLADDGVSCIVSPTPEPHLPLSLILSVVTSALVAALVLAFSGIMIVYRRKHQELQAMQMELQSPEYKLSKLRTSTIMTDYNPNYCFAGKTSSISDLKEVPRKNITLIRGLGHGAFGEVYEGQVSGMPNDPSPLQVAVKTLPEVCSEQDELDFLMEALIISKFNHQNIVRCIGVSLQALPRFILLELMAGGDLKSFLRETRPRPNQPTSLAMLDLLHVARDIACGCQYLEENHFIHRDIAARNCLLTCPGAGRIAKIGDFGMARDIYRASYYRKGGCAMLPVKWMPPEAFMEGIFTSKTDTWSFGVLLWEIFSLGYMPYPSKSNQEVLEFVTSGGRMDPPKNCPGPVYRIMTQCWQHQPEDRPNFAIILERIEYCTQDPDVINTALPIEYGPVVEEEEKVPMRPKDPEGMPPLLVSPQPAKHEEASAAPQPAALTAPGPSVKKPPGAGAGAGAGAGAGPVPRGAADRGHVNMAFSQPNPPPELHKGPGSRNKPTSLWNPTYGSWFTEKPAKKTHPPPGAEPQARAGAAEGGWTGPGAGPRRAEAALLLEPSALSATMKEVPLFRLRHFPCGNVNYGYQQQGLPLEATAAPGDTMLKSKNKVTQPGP
UniProt Q9UM73: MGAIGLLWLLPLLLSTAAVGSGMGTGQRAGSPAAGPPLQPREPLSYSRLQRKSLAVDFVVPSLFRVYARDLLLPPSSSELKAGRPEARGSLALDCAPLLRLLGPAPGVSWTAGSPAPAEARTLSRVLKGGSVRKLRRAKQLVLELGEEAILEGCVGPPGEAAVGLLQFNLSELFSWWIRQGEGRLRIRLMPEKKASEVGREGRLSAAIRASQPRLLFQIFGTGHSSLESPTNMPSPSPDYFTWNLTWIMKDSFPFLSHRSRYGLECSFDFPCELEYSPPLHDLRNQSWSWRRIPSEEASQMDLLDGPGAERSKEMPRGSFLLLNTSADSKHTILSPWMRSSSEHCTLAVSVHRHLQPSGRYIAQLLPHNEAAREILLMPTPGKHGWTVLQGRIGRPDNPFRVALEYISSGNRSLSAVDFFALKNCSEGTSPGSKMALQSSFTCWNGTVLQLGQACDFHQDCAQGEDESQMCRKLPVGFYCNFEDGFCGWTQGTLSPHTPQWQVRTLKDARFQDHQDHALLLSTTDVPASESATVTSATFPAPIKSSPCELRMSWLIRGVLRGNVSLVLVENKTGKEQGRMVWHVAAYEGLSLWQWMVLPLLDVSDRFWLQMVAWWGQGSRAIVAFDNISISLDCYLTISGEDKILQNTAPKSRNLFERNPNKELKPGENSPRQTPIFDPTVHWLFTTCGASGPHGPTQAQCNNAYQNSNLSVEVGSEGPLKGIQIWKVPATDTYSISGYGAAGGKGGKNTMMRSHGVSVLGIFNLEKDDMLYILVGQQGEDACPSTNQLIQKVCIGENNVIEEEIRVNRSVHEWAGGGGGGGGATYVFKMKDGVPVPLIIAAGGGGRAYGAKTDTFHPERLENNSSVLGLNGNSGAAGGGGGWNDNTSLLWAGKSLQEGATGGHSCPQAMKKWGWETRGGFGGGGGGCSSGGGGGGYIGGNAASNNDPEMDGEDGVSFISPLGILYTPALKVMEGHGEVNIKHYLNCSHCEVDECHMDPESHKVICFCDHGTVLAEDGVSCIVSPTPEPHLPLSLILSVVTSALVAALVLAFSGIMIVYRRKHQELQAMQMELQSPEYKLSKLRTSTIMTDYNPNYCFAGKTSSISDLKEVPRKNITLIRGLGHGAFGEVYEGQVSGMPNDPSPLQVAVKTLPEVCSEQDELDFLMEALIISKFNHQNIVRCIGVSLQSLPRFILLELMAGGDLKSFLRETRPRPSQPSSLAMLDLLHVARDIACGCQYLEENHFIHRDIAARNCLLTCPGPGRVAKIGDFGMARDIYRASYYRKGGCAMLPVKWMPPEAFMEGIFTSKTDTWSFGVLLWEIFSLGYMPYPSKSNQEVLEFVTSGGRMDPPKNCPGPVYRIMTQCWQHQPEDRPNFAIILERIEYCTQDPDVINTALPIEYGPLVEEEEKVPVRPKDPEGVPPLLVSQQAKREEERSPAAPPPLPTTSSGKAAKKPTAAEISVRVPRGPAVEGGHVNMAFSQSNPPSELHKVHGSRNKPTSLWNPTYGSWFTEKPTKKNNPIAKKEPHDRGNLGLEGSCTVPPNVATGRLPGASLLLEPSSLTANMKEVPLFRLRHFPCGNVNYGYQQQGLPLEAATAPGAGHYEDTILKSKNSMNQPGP

B1: Ab320 (antibody, V domains shown)
VH: QVQLQQSGAELVKPGASVKISCKASGYAFSSYWMNWVKQRPGKGLEWIGQIYPGDGDTNYNGKFKGKATLTADKSSSTAYMQLSSLTSEDSAVYFCASYYYGSKAYWGQGTLVTVSA
VL: DIQMTQSPASLAASVGETVTITCRASENIYYSLAWYQQKQGKSPQLLIYNANSLEDGVPSRFSGSGSGTQYSMKINSMQPEDTATYFCKQAYDVPFTFGSGTKLEIKR
B2: Ab326 (antibody, V domains shown)
VH: QVQLQQSGAELAKPGASVKLSCKASGYTFTSYWMHWVKQRPGQGLEWIGYIKPSSGYTKYNQKFKDKATLTADKSSSTAYMQLSSLTYEDSAVYYCARDYYGSSSWFAYWGQGTLVTVSA
VL: DIVMTQSQRFMSTSVGDRVSVTCKASQNVGTNVAWYQQKPGQSPKALIYSASYRYSGVPDRFTGSGSGTDFTLTISNVQSEDLAEYFCQQYNSYPYMYTFGGGTKLEIKR
B3: Ab328 (antibody, V domains shown)
VH: B2 VH with K52N, Y88F
VL: B2 VL with R9K, Q42H, Q90R, Y98F
B4: Ab327 (antibody, V domains shown)
VH: DVKLVESGEGLVKPGGSLKLSCAASGFTFSSYAMSWVRQTPEKRLEWVTYISSGGDYIYYADTVKGRFTISRDNARNTLYLQMSSLKSEDTAMYYCTRERIWLRRFFDVWGTGTTVTVSS
VL: DIVMTQSQKFMSTSVGDRVSITCKASQNVGTAVAWYQLKPGQSPKLLIYSASNRFTGVPDRFTGSGSGTDFTLTISNMQSEDLADYFCQQYSSYPLTFGSGTKLEIKR
B5: Ab329 (antibody, V domains shown)
VH: QVQLKESGPGLVKPSATLSLTCTVSGFSLTSYHVCWIRQTPGKGLEWMGVIWGDGRTTYNPPLKSRLSISRDTSKSQVFLKMSSLKTEDTATYYCARATMTGHGDAWGQGASVTVSS
VL: DIQMTQSPASLSASLEEIVTITCQASQDIDNYLSWYQQKPGKSPHLLIHSATSLADGVPSRFSGGRSGTQFSLKINRLQVEDTGIYYCLQHYSGWTFGGGTKLELKR
B6: Ab330 (antibody, V domains shown)
VH: EVQVVETGGGVVQPGKSLEITCATSGLTFSTAWMYWVRQSSDRRLEWIARIKDKSNKFASDYVESVRGRFTISRDDSRSSVYLQMNNLKEEDTATYYCTTSYGYAWGQGVMVTVSS
VL: DIQMTQSPSSMSASLGDRVTITCQASQDIGNYLIWFQQKPGKSPRPLIYYATNLANGVPSRFSGSRSGSEYSLTITSLESEDMADYHCLQYKQHLTFGSGTKLEIER
B7: Ab323 (antibody, V domains shown)
VH: QVQLQQSGAELVKPGASVKISCKTSGYTFSNYWMNWVKQRPGKGLEWIGQIFPGDADANYNGKFKGKATLTADKSSSAAFMQLSSLTSEDSAVYFCARFSYDGAFAYWGQGTLVTVS
VL: DIVMTQSHKFMSTSVGDRVSITCKASQDVSTAVAWYQQKPGQSPKPLIYWASTRHTGVPDRFTGSGSGTDYTLTISSVQTEDLALYYCQQHYSTPRTFGGGTKLEIKR
B8: Ab325 (antibody, V domains shown)
VH: QVQLQQSGAELVKPGASVKISCKASGYAFSSYWMNWVKQRPGKGLEWIGQIYPGDGDTNYNGKFKGKATLTADKSSSTAYMQLSSLTSEDSAVYFCARWYYGSYYAMDYWGQGTSVTVSS
VL: DIQMTQTTSSLSASLGDRVTISCRASQDISNYLNWYQQKPDGTVKLLIYYTSRLHSGVPSRFSGSGSGTDYSLTISNLEQEDIATYFCQQGNTLPRTFGGGTKLEIKR
B9: Ab352 (antibody, V domains shown)
VH: EVQLVQSGPEVKKPGTSVKLSCKASGYTFTSYWMHWVRQARGQRLEWIGYIKPSSGYTKYNQKFKDRATLTADKSTSTAYMELSSLRSEDTAVYYCARDYYGSSSWFAYWGQGTLVTVSS
VL: EIVMTQSPAFLSVTPGEKVTITCKASQNVGTNVAWYQQKPDQAPKALIYSASYRYSGVPSRFSGSGSGTDFTLTISSLEAEDAATYYCQQYNSYPYMYTFGQGTKLEIK
B10: Ab355 (antibody, V domains shown)
VH: B9 VH with E1Q, P9A, K12A, T16A, R38K, R41P, R44G, R67K, S84R, E89D
VL: B9 VL

biological target: murine ALK (Table 18, 'mouse ALK binding') (mouse) (UniProt P97793); assay: ELISA on purified mouse ALK or flow cytometry on Neuro-2a cells

binding, binds:
B1
B2
B3
B4
B5
B6
B7
B8

biological target: mouse ALK on the surface of Neuro2a cells (mouse) (UniProt P97793); assay: flow cytometry on NB1 and Neuro2a cells

binding, binds:
B9
B10

biological target: human ALK on the surface of NB1 cells (human) (UniProt Q9UM73); assay: flow cytometry on NB1 and Neuro2a cells

binding, binds:
B9
B10
